According to PubChem BioAssay AID743255 (National Center for Advancing Translational Sciences (NCATS), 2014):
Hit rate of the full screen: of about 390,000 compounds, about 910 (0.23%) were called active. Inconclusive means that the source gave no clear call. Such entries were picked first, then a sample of the others. The call rests on the fitted dose curve; in most records, active means well fitted inhibition curve with a large enough effect; inconclusive means small, poorly fitted or top-dose-only effect; inactive means no such curve, though single readings can be large or run the other way. Potencies beside an inconclusive call are fits to weak or partial responses and may not hold up.

Sequences of proteins named here, by UniProt entry; tags and fusion partners are left off. A change or cut given only in a name is not applied to a line headed by its entry.
UniProt O94782: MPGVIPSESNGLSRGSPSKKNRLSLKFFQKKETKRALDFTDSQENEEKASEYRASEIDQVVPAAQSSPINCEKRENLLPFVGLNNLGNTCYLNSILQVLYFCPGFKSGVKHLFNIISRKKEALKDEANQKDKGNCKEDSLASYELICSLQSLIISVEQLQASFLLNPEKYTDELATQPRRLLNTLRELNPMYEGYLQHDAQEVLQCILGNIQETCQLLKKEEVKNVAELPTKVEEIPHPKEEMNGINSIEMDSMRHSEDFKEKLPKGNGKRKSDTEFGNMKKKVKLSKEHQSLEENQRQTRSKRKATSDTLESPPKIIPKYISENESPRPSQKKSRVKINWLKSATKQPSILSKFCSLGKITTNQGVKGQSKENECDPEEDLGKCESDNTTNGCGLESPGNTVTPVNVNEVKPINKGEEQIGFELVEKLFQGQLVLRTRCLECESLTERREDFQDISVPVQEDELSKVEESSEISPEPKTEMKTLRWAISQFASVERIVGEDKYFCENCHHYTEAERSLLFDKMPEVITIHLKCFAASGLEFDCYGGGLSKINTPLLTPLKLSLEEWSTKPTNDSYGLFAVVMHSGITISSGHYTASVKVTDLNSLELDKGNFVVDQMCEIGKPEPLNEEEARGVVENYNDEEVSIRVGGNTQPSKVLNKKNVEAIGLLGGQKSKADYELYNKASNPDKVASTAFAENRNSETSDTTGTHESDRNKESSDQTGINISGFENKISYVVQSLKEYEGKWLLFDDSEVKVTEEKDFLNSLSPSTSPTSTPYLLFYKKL

The molecules below were run against Ubiquitin carboxyl-terminal hydrolase 1 (Homo sapiens) (UniProt O94782) (assay: Inhibitors of USP1/UAF1: Primary Screen). Conditions: recombinant USP1/UAF1, Ub-Rhodamine cleavage fluorescence; activity change, negative = inhibition: at 57.1 µM (top of the series).
In short: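 In this screen, compounds sit with the deubiquitinase complex (1nM) for 15 min at room temperature before Ub-Rho is added at 150nM final. Fluorescence rise is then followed for 6 reads every 60 seconds.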
Further: nearly all actives have a fitted effect of over 60% in size.
On the % scale 0 is the no-effect control and ±100 the full control effect; potency means the concentration at half of the fitted maximal effect.

Question: How did the Potency turn out when `CC(=O)N1C(=O)/C(=C2\SC(=S)N(c3c(C)n(C)n(-c4ccccc4)c3=O)C2=O)c2ccccc21` was run?
Answer: Its Potency is inconclusive: 3.16 µM [inhibitor, full curve, poor fit].

Question: How did the Potency turn out when `COCCn1c(C)cc(O)c(C(c2ccc(OC)cc2)N2CCCCC2)c1=O` (stereo not given) was run?
Answer: Its Potency is inconclusive: 0.224 µM [inhibitor, full curve, poor fit].

Question: `C[C@H](CO)N1C[C@H](C)[C@@H](CN(C)C(=O)NC2CCCCC2)Oc2ccc(NS(=O)(=O)c3ccc(F)cc3)cc2C1=O` was tested. Which Potency did it give?
Answer: Its Potency is inconclusive: 5.62 µM [inhibitor, partial curve].

Question: With `Cc1onc(-c2ccccc2Cl)c1C(=O)N1CCCCC1C(=O)O` (stereo not given) as the molecule, how does the Potency read?
Answer: The Potency was inconclusive: 0.708 µM [inhibitor, full curve, poor fit].

Question: `CC(C)c1ccc(N=C2NN=C(c3cccs3)CS2)cc1` was tested. Which Potency did it give?
Answer: Its Potency is inconclusive: 50.1 µM [inhibitor, partial curve, poor fit].

Question: With `CC(=O)C1=C(c2cccc([N+](=O)[O-])c2)N(C(C)=O)n2c(C)nnc2S1` as the molecule, how does the Potency read?
Answer: The Potency was active: 14.1 µM.

Question: How did the Potency turn out when `O=C(Cc1ccccc1)NN1C(=O)/C(=C/c2ccc(C(=O)O)cc2)SC1=S` was run?
Answer: Its Potency is inconclusive: 15.8 µM [inhibitor, partial curve].

Question: For `OCCNc1nc(Nc2ccc(Br)cc2)nc2ccccc12`, which Potency is on record?
Answer: Its Potency is inconclusive: 35.5 µM [inhibitor, partial curve, poor fit].

Question: Which Potency does the source give for `Cc1ccccc1NC(=O)Cn1c(=O)n(Cc2ccco2)c(=O)c2ccc(C(=O)NC3CCCC3)cc21` here?
Answer: Its Potency is inconclusive: 1.41 µM [inhibitor, full curve].

Question: How did the Potency turn out when `CCOCCCn1c(SCc2nc3ccccc3s2)nc2ccccc2c1=O` was run?
Answer: Its Potency is inconclusive: 39.8 µM [inhibitor, partial curve].

Question: Which Potency does the source give for `O=C(O)c1cc(Cl)ccc1-c1ccc(/C=C/c2cc(C(F)(F)F)[nH]c(=O)n2)o1` here?
Answer: The Potency was active: 28.2 µM.

Question: `O=C(NCCCn1ccnc1)c1cc(-c2ccc(Cl)cc2)nc2ccccc12` was tested. Which Potency did it give?
Answer: The Potency was “inactive”.

Question: How did the Potency turn out when `COc1ccc(Cl)cc1NC(=O)c1c(NCc2cccnc2)sc2c1CCCC2` was run?
Answer: Its Potency is inconclusive: 3.98 µM [inhibitor, partial curve].

Question: For `O=C(CSc1nnnn1-c1ccc(F)cc1F)Nc1ccccc1F`, which Potency is on record?
Answer: Its Potency is inconclusive: 22.4 µM [inhibitor, partial curve].

Question: For `COc1cc(C=Nc2cccc(C)c2)c(O)c([N+](=O)[O-])c1`, which Potency is on record?
Answer: Its Potency is inconclusive: 39.8 µM [inhibitor, partial curve].

Question: How did the Potency turn out when `CSc1ccc(CCNS(=O)(=O)c2cc(-c3cc(C)no3)ccc2C)cc1` was run?
Answer: Its Potency is inconclusive: 0.708 µM [inhibitor, full curve].

Question: `C/C(CC(C)C)=N\NS(=O)(=O)c1ccc(C)c([N+](=O)[O-])c1` was tested. Which Potency did it give?
Answer: The Potency was “inactive”.

Question: `C=C[C@@H]1c2ccccc2N(S(=O)(=O)c2ccc(C)cc2)[C@H](c2ccc(C(F)(F)F)cc2)C1(C#N)C#N` was tested. Which Potency did it give?
Answer: The Potency was inconclusive: 3.16 µM [inhibitor, full curve].

Question: How did the Potency turn out when `O=C(Nc1ccccc1)c1cc2c(-c3ccccc3)nn(-c3ccccc3)c2s1` was run?
Answer: Its Potency is inconclusive: 44.7 µM [inhibitor, partial curve, poor fit].

Question: For `Cc1ccccc1NC(=O)Cn1nnc(C(=O)NCc2ccco2)c1N`, which Potency is on record?
Answer: The Potency was “inactive”.

Question: How did the Potency turn out when `CCOC(=O)c1cnc2cc(Cl)c(OC)cc2c1Nc1ccc(Br)cc1C` was run?
Answer: The Potency was inconclusive: 0.398 µM [inhibitor, full curve].

Question: For `COc1ccc(Cl)cc1S(=O)(=O)Nc1ccc2c(c1)n(C)c(=O)n2C`, which Potency is on record?
Answer: The Potency was inconclusive: 1.26 µM [inhibitor, partial curve, poor fit].

Question: Which Potency does the source give for `COc1ccc(NC(=O)C(=O)Nc2ccc3nc4n(c(=O)c3c2)CCCCC4)c(OC)c1` here?
Answer: Its Potency is inconclusive: 1.12 µM [inhibitor, full curve, poor fit].

Question: `CN(C)CCCCCNCCCNC(=O)/C=N\O` was tested. Which Potency did it give?
Answer: Its Potency is inconclusive: 28.2 µM [inhibitor, single point].

Question: `O=C(COCc1cc(-c2ccc3c(c2)OCO3)on1)Nc1cccc(O)c1` was tested. Which Potency did it give?
Answer: The Potency was “inactive”.

Question: How did the Potency turn out when `Cc1c(/C=C2\SC(=Nc3cccc(C(=O)O)c3)NC2=O)c2ccccc2n1C` was run?
Answer: Its Potency is inconclusive: 5.62 µM [inhibitor, full curve, poor fit].

Question: How did the Potency turn out when `Cc1cc(Cl)ccc1OC(C)c1nnc(N)s1` (stereo not given) was run?
Answer: The Potency was “inactive”.

Question: How did the Potency turn out when `Cc1cccc(Nc2nc(-c3ccc(O)c(O)c3)cs2)n1` was run?
Answer: Its Potency is “inactive”.

Question: `Cn1cccc1/C=C1\SC(=S)N(NC(=O)c2cccc(Cl)c2)C1=O` was tested. Which Potency did it give?
Answer: Its Potency is inconclusive: 39.8 µM [inhibitor, partial curve].

Question: With `Cc1cc(=O)oc2c3c(cc(OCC(=O)NCc4ccncc4)c12)OC(C)(C)CC3` as the molecule, how does the Potency read?
Answer: Its Potency is “inactive”.

Question: With `CC(C)Cc1ccc(CN2CCCC(NC(=O)CCn3cnnn3)C2)cc1` (stereo not given) as the molecule, how does the Potency read?
Answer: The Potency was “inactive”.

Question: For `O=c1[nH]c(SCc2nc3c(cnn3-c3ccccc3)c(=O)[nH]2)nc2ccccc12`, which Potency is on record?
Answer: Its Potency is inconclusive: 50.1 µM [inhibitor, partial curve, poor fit].

Question: With `COc1ccc(NC(=O)CN(C)C(=O)c2ccccc2OC)cc1` as the molecule, how does the Potency read?
Answer: The Potency was inconclusive: 0.708 µM [inhibitor, full curve, poor fit].

Question: How did the Potency turn out when `COc1ccc(-n2nc3c(N4CCCC(C(=O)NCc5ccccc5C)C4)nnc(C)c3c2C)cc1` (stereo not given) was run?
Answer: The Potency was inconclusive: 0.316 µM [inhibitor, full curve, poor fit].

Question: With `CCOc1ccc(CCNC(=O)c2ccc(=O)[nH]c2)cc1OCC` as the molecule, how does the Potency read?
Answer: Its Potency is inconclusive: 79.4 µM [inhibitor, partial curve, poor fit].

Question: For `O=C(NCCn1cc(SCc2ccc(C(F)(F)F)cc2)c2ccccc21)c1cccs1`, which Potency is on record?
Answer: The Potency was “inactive”.

Question: For `CC(=O)[C@@H]1[C@@H](C(=O)c2ccc(C)cc2)[C@]2(C(=O)Nc3ccccc32)[C@H]2C=Cc3cc(F)ccc3N12`, which Potency is on record?
Answer: The Potency was “inactive”.

Question: `COc1ccc(-c2[nH]nc3nc(N4CCN(C(=O)c5ccoc5)CC4)cc(C(F)(F)F)c23)cc1` was tested. Which Potency did it give?
Answer: The Potency was inconclusive: 0.282 µM [inhibitor, full curve].

Question: How did the Potency turn out when `Cc1ccc(NC(=O)CSc2nnc(N)s2)c([N+](=O)[O-])c1` was run?
Answer: Its Potency is inconclusive: 1.78 µM [inhibitor, full curve].

Question: For `O=C(O)CN1C(=O)/C(=C\c2cc(Br)ccc2OCc2ccc(Cl)cc2)SC1=S`, which Potency is on record?
Answer: The Potency was inconclusive: 35.5 µM [inhibitor, partial curve].

Question: For `COc1ccccc1CNc1ncnc2onc(-c3ccc(Cl)cc3)c12`, which Potency is on record?
Answer: Its Potency is “inactive”.

Question: For `CC(CCc1ccccc1)NC(=O)Cn1ncc2c3ccccc3n(Cc3cccc(Cl)c3)c2c1=O` (stereo not given), which Potency is on record?
Answer: The Potency was inconclusive: 35.5 µM [inhibitor, partial curve, poor fit].

Question: For `CC(C#N)Sc1ncnc2sc(-c3ccccc3)cc12` (stereo not given), which Potency is on record?
Answer: The Potency was inconclusive: 7.94 µM [inhibitor, single point].

Question: For `CCOc1ccc(NC(=O)CSc2oc(-c3ccco3)nc2S(=O)(=O)c2ccc(Cl)cc2)cc1`, which activity change, negative = inhibition is on record?
Answer: The activity change, negative = inhibition was inconclusive: -17% [inhibitor].

Question: How did the Potency turn out when `CC1=C(C#N)c2nc(N)c(C#N)c(C)c2/C1=C\c1ccc(-c2ccccc2C(=O)O)o1` was run?
Answer: Its Potency is inconclusive: 31.6 µM [inhibitor, partial curve].

Question: `CCCc1nnc(NS(=O)(=O)c2ccccc2)s1` was tested. Which Potency did it give?
Answer: Its Potency is “inactive”.

Question: Which Potency does the source give for `Nc1ccc2nc(-c3ccc(Cl)cc3)[nH]c2c1` here?
Answer: The Potency was inconclusive: 44.7 µM [inhibitor, partial curve].

Question: `Cc1cccc(Oc2ccccc2NC(=O)CSCC(=O)Nc2cc(C)on2)c1` was tested. Which Potency did it give?
Answer: Its Potency is inconclusive: 0.316 µM [inhibitor, full curve].

Question: Which Potency does the source give for `CCOc1ccc(N(CC(=O)NCc2ccc(C)cc2)S(=O)(=O)c2c(C)[nH]c(=O)[nH]c2=O)cc1` here?
Answer: Its Potency is inconclusive: 0.251 µM [inhibitor, full curve, poor fit].

Question: `Cc1sc2ncnc(SCC(=O)NC(=O)c3cccn3C)c2c1C` was tested. Which Potency did it give?
Answer: The Potency was “inactive”.

Question: Which Potency does the source give for `C=CC[C@@H](CC(=O)N[C@H](CO)Cc1ccccc1)C(=O)N[C@H](COC(=O)[C@@H](CC=C)Cc1ccc(F)cc1)C(C)(C)C` here?
Answer: Its Potency is inconclusive: 6.31 µM [inhibitor, single point].

Question: `COc1ccc(C)cc1N(CC(=O)N1CCCCCC1)S(=O)(=O)c1ccccc1` was tested. Which Potency did it give?
Answer: Its Potency is “inactive”.

Question: How did the Potency turn out when `COCCN(C(=O)CCC(=O)Nc1ccccn1)C(C(=O)NCCC(C)C)c1ccc(F)cc1` (stereo not given) was run?
Answer: Its Potency is inconclusive: 4.47 µM [inhibitor, full curve].

Question: For `O=C(COc1ccccc1[N+](=O)[O-])N1CCN(C(=O)c2ccco2)CC1`, which Potency is on record?
Answer: The Potency was inconclusive: 35.5 µM [inhibitor, single point].

Question: How did the Potency turn out when `CC(NC(=O)COc1ccc([N+](=O)[O-])cc1)c1ccccc1` (stereo not given) was run?
Answer: The Potency was “inactive”.

Question: For `Cc1nc(Nc2ccc3c(c2)OCCO3)c2nnn(Cc3ccccc3Cl)c2n1`, which Potency is on record?
Answer: Its Potency is inconclusive: 50.1 µM [inhibitor, partial curve, poor fit].

Question: With `COC(=O)CCC(=O)OC1(C)C(=O)C2=CN(CC3CC3)C(c3ccc(OC)cc3)=CC2=C(Br)C1=O` (stereo not given) as the molecule, how does the Potency read?
Answer: The Potency was active: 31.6 µM.

Question: With `CCc1ccccc1NC(=O)C1=CC(c2ccc3c(c2)OCO3)=NS(=O)(=O)N1C` as the molecule, how does the Potency read?
Answer: The Potency was inconclusive: 0.708 µM [inhibitor, full curve, poor fit].

Question: How did the Potency turn out when `COc1cc(-c2cn[nH]c2N)cc(OC)c1OC` was run?
Answer: Its Potency is “inactive”.

Question: Which Potency does the source give for `CCC(=O)N1CCc2cc(S(=O)(=O)NC(Cc3ccccc3)C(=O)Nc3ccc(Cl)cc3)ccc21` (stereo not given) here?
Answer: The Potency was inconclusive: 35.5 µM [inhibitor, single point].

Question: How did the Potency turn out when `O=C(NCc1ccco1)NC(=O)c1csc([N+](=O)[O-])c1` was run?
Answer: The Potency was “inactive”.

Question: How did the Potency turn out when `O=c1oc2cc(Oc3ccc(C(F)(F)F)cc3[N+](=O)[O-])ccc2c2c1CCC2` was run?
Answer: The Potency was “inactive”.

Question: For `FC(F)(F)c1cc(Cl)c2nnc(-c3ccccn3)n2c1`, which Potency is on record?
Answer: The Potency was inconclusive: 35.5 µM [inhibitor, partial curve].

Question: `CCOc1ccc(N2CSC3=C(C#N)C(c4ccco4)CC(=O)N3C2)cc1` (stereo not given) was tested. Which Potency did it give?
Answer: Its Potency is “inactive”.

Question: How did the Potency turn out when `CCc1sc(C(=O)Nc2ccc3nc(C)sc3c2)cc1C` was run?
Answer: The Potency was inconclusive: 35.5 µM [inhibitor, partial curve].
